Data taken from paper PMC6470170.
No constants are given. Whether binding was seen depends on the method and setting. Binding seen in cells or lysates may run through a third protein. One block for each molecule: values may come before it.

Protein sequences, listed by entry. Tags and fused reporters are not part of them. Residues count along the entry.
UniProt P97952, residues 19-218: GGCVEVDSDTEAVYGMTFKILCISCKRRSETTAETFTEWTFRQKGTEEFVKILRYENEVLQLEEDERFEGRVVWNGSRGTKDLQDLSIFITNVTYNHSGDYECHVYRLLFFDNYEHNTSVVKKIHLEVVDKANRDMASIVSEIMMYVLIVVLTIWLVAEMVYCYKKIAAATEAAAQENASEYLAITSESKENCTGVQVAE

Experiments:
Assay in all cases: co-IP; solubilized Scn1b WT mouse total brain membranes (~1 mg membrane proteins per tube); antibody-conjugated protein A-sepharose beads, 4-6 h at 4 °C in dilution buffer (60 mM Tris-HCl pH 7.5, 180 mM NaCl, 1% Triton X-100, 6 mM EDTA) with octyl-β-D-glucopyranoside; immunoblot; done in both directions; non-immune rabbit IgG control
[1] = biological target: T1, K+-Cl- co-transporter-2 (KCC2) (mouse (endogenous in mouse brain)) (UniProt Q91V14)
T1 sequence: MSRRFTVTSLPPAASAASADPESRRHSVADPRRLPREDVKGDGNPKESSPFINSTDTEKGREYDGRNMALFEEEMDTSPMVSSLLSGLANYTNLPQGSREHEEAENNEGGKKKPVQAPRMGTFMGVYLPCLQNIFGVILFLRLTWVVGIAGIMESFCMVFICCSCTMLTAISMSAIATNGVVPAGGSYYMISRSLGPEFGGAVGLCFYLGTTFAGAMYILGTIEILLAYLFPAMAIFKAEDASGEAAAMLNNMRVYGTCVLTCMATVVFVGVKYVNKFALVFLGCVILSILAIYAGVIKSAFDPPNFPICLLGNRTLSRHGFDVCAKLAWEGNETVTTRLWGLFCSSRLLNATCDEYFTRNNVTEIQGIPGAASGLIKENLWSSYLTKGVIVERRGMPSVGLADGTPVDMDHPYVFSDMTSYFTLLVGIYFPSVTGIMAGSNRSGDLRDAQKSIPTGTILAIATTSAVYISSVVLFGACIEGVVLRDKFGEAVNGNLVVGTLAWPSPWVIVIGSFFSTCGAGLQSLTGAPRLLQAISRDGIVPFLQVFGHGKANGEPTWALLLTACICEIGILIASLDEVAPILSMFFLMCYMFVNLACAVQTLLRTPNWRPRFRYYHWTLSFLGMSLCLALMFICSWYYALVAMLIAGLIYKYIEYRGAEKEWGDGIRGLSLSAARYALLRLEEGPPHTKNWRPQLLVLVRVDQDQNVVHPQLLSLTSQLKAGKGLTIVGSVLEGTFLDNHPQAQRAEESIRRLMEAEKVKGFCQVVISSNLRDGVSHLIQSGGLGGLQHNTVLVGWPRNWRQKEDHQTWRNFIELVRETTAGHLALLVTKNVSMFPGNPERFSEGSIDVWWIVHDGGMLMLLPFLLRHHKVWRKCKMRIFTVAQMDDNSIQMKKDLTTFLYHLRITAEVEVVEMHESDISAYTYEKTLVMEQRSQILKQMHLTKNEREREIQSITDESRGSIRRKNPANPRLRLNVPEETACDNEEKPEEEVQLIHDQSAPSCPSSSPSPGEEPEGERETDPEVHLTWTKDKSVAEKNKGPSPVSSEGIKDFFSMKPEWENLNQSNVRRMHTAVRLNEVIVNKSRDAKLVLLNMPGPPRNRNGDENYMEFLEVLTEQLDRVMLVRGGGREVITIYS

[2] = biological target: T2, Na+, K+-2Cl- co-transporter-1 (NKCC1) (mouse (endogenous in mouse brain)) (UniProt P55012)
T2 sequence: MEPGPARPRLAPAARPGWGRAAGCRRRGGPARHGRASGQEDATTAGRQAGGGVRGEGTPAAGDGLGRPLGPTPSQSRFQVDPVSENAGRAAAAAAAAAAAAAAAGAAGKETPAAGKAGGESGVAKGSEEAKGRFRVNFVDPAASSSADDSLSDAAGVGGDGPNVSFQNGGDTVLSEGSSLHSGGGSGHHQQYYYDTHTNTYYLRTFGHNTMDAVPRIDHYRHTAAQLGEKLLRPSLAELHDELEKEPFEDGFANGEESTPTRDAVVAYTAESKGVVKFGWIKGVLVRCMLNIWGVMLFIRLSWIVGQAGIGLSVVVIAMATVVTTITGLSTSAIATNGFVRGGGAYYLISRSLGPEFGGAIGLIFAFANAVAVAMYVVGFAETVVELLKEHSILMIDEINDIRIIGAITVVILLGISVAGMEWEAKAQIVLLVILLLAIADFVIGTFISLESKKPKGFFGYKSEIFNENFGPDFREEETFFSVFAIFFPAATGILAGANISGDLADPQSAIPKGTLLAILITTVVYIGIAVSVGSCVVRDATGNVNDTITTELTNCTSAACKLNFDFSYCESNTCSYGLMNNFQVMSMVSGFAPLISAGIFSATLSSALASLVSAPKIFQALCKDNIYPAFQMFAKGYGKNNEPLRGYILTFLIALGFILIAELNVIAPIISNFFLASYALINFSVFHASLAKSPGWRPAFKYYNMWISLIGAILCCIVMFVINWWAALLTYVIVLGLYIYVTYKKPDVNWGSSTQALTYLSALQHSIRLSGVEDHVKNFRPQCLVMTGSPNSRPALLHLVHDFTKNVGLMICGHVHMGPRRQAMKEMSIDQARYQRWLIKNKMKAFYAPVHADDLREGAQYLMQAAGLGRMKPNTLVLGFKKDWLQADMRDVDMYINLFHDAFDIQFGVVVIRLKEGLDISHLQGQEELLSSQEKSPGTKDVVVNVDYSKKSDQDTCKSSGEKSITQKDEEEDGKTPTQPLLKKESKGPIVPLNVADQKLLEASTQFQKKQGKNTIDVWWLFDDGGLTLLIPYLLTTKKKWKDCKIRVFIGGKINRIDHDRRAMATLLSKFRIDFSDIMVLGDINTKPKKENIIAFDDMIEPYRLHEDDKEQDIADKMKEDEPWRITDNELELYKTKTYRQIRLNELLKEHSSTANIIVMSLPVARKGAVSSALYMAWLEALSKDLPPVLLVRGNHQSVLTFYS

[3] = biological target: voltage-gated sodium channel (VGSC) β1 subunit (mouse (endogenous in mouse brain)) (UniProt P97952)

binding [1]: no binding
binding [2]: no binding
Molecule: voltage-gated sodium channel (VGSC) β1 subunit (from UniProt P97952 19-218)

binding [3]: no binding
B1: K+-Cl- co-transporter-2 (KCC2) (protein, UniProt Q91V14 1-1138)
chain: T1 sequence

binding [3]: no binding
B2: Na+, K+-2Cl- co-transporter-1 (NKCC1) (protein, UniProt P55012 1-1205)
chain: T2 sequence
